# From the supplement of paper PMC12819154, “High-throughput peptide-centric local stability assay extends protein–ligand identification to membrane proteins, tissues and bacteria” (Nature Structural & Molecular Biology, 2025)
# Protein sequences, listed by entry. Tags and fused reporters are not part of them. Lines headed by an entry give the natural chain unless they say otherwise; changes in a name come on top.
# UniProt Q9DB20: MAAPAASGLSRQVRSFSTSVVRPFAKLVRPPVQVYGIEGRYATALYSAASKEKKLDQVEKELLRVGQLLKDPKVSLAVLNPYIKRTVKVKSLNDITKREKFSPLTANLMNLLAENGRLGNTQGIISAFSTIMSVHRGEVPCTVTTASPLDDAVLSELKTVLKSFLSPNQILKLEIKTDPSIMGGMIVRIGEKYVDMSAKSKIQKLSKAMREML
# UniProt Q9DAV9: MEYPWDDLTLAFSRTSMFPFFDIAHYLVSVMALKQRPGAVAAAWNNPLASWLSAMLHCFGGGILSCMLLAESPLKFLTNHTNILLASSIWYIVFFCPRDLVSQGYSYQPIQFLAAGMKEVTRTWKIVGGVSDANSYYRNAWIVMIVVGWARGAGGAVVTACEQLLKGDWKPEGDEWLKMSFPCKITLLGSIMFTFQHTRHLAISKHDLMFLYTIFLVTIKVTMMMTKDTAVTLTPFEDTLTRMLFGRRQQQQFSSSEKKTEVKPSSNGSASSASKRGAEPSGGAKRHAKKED
# UniProt Q9CZ30, whole entry, looked up: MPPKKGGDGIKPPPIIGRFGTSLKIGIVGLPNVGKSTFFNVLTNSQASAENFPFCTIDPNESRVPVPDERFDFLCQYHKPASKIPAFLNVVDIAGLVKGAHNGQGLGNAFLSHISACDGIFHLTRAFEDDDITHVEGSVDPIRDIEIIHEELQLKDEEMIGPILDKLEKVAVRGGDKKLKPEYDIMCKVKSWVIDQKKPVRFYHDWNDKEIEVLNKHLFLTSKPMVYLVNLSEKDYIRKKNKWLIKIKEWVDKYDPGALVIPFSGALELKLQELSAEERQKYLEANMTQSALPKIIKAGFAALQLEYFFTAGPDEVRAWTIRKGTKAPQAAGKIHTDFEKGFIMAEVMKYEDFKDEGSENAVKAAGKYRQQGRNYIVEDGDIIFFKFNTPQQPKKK
# UniProt Q9CZB0: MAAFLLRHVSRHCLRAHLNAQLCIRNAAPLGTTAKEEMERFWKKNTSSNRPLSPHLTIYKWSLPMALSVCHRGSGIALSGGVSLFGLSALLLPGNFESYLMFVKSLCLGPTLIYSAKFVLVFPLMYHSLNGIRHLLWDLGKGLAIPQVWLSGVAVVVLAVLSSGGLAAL
# UniProt Q9D5J6: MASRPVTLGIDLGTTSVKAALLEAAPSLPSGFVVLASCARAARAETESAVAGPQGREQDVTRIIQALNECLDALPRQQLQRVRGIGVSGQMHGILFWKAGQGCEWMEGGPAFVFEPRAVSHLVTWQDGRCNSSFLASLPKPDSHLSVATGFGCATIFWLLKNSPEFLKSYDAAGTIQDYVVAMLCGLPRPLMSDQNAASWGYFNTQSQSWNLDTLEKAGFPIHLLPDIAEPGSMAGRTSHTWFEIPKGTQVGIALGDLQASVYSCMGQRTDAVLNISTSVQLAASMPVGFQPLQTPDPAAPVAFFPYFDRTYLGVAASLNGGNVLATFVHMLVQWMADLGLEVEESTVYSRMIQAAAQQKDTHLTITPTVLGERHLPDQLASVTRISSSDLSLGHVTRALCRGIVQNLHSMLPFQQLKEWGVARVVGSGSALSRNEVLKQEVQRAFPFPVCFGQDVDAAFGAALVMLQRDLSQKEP
# UniProt Q9DB05: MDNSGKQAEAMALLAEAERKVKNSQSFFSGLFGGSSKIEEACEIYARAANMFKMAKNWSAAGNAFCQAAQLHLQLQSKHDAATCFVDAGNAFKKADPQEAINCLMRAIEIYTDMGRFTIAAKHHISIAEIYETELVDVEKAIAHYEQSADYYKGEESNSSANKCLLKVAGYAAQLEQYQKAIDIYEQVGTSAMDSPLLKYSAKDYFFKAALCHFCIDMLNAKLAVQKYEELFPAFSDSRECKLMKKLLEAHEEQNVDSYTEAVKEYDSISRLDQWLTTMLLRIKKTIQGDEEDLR
# UniProt Q9DA03: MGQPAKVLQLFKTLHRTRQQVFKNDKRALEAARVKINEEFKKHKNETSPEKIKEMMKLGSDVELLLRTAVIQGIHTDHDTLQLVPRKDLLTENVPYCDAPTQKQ
# UniProt Q9D024: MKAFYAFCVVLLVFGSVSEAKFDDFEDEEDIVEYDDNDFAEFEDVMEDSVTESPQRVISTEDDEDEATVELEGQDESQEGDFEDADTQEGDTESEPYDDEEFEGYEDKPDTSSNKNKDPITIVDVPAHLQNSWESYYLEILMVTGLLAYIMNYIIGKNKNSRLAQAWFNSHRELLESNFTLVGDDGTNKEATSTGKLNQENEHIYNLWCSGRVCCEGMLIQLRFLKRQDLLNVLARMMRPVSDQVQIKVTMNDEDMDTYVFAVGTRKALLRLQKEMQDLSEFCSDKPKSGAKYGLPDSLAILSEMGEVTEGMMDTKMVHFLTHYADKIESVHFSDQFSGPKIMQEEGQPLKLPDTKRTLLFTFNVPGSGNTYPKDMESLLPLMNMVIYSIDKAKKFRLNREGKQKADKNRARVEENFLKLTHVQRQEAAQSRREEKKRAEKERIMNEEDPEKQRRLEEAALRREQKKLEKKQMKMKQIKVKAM
# UniProt Q9D273: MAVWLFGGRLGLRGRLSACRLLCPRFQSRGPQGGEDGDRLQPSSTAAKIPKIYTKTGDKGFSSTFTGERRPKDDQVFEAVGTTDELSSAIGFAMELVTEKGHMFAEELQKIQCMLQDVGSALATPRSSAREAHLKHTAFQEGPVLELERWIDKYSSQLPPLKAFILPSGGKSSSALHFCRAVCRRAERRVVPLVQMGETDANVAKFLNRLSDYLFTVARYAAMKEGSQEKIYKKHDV
# UniProt Q9D1J3: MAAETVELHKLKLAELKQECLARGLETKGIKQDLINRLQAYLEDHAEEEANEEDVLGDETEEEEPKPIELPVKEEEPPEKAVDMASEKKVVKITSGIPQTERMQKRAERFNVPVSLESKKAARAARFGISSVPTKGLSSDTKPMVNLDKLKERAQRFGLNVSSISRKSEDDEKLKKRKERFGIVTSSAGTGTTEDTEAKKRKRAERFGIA
# UniProt Q9D924: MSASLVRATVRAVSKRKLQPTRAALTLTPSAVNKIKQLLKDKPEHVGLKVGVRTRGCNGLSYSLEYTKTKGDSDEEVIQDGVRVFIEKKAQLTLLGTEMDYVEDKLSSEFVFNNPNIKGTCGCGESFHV
# UniProt Q9D1J1: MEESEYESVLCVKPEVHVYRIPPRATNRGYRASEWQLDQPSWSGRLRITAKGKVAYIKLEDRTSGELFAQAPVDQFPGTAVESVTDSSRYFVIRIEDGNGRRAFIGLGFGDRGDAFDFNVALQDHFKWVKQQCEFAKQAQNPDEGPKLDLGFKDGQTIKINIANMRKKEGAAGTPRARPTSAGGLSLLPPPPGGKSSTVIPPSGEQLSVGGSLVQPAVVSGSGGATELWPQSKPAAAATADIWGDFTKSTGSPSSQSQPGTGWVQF
# UniProt Q9CZE3: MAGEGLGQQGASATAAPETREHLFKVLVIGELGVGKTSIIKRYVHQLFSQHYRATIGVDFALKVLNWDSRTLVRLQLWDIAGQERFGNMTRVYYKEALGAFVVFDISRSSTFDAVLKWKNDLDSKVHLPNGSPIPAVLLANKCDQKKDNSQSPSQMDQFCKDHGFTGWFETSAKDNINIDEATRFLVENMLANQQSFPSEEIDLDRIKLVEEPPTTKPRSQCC
# UniProt Q9D883: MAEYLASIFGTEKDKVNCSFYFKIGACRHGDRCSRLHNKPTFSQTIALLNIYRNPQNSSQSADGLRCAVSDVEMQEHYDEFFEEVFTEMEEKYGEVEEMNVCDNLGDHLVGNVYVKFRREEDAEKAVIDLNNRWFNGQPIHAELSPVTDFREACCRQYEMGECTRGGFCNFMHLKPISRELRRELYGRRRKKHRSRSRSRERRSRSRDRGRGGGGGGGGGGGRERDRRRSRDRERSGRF
# UniProt Q9D1M0: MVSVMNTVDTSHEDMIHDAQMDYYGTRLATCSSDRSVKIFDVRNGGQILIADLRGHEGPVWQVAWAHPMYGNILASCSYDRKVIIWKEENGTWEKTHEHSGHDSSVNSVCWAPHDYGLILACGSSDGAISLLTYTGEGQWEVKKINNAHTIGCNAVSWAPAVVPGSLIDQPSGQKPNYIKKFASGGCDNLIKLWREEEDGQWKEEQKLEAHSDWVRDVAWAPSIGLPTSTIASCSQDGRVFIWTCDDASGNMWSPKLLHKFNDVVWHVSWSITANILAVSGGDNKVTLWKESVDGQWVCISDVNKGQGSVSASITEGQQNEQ
# UniProt Q9DBP5: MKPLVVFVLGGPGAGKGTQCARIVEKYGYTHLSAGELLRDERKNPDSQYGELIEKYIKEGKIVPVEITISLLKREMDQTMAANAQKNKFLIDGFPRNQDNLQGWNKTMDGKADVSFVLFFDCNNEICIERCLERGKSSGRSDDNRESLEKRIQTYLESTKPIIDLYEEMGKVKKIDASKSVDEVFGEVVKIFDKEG
# UniProt Q9DB29: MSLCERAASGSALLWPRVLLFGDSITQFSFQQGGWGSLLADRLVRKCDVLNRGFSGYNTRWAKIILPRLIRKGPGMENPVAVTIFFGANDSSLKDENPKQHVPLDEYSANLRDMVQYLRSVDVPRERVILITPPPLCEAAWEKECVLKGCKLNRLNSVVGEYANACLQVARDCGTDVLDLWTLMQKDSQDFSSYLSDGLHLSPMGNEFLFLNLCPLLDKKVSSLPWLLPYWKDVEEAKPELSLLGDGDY
# UniProt Q9D8B6: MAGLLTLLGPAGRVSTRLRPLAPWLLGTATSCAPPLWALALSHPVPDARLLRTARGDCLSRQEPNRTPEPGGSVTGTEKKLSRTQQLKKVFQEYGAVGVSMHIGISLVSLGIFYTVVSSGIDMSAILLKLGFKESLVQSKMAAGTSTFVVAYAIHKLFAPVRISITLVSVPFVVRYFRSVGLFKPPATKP
# UniProt Q9DB98: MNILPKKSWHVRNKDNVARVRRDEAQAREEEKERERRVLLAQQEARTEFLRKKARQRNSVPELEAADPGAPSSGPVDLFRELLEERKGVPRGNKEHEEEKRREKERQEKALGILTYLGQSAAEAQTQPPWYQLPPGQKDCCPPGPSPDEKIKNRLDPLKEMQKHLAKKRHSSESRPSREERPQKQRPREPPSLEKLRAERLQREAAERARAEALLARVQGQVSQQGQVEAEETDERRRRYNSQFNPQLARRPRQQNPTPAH
# UniProt Q9CY66: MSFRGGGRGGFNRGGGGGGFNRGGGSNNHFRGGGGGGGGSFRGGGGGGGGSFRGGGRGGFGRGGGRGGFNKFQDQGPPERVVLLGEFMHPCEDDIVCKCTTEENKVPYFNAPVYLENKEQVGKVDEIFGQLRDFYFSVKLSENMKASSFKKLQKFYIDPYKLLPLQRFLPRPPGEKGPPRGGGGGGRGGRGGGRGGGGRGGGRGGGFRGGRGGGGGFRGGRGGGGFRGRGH
# UniProt Q9DBJ3: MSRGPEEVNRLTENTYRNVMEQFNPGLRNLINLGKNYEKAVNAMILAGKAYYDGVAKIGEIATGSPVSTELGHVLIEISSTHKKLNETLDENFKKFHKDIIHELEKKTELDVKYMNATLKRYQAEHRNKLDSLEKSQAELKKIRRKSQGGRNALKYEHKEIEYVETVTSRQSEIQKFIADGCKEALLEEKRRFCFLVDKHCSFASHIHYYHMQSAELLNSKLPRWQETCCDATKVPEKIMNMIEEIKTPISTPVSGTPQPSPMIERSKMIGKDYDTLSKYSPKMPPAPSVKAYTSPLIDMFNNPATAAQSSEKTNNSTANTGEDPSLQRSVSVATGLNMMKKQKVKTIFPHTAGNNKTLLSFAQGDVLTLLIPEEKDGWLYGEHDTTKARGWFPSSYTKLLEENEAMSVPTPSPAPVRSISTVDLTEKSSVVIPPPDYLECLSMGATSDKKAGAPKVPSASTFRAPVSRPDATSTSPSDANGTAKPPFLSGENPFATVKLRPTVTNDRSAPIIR
# UniProt Q9D517: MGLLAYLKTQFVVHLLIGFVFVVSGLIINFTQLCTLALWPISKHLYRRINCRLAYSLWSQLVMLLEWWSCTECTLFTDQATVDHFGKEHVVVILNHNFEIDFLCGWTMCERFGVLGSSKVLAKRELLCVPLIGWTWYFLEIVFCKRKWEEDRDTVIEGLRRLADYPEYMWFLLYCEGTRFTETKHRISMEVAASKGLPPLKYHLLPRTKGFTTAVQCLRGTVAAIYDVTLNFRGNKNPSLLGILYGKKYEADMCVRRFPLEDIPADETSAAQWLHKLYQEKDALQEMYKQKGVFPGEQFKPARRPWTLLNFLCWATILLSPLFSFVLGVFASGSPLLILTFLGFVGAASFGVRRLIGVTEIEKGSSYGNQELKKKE
# UniProt Q9D8T2: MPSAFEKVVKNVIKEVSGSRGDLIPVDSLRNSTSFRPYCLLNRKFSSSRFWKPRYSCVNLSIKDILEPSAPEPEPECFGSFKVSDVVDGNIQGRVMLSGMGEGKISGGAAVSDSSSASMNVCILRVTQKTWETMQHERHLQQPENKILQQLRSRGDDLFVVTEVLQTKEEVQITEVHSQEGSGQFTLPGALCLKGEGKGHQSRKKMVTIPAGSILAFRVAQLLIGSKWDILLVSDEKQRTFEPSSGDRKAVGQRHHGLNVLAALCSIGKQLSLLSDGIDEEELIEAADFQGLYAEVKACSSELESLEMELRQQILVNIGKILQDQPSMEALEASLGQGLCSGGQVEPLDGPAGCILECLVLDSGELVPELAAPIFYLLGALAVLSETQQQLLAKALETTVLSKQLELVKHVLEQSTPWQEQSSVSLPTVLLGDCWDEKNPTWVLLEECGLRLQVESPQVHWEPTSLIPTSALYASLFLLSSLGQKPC
# The other results are listed elsewhere or left out. Most values lie at the level of the controls, where differences are scatter.
# Compound: CN[C@@H]1C[C@H]2O[C@@](C)([C@@H]1OC)n1c3ccccc3c3c4c(c5c6ccccc6n2c5c31)C(=O)NC4 [staurosporine]
# Test: log2 fold change of pooled soluble protein (PISA), ligand vs vehicle (log2 ratio); higher = more thermally stabilized
# Settings: ligand concentration: 20 uM; assay format: PISA pool 52.9/55.5/58.6 C
row,Target,log2 fold change of pooled soluble protein
1,UniProt Q9D8U2,0.0776
2,UniProt Q9DBB9,-0.179
3,UniProt Q9DB20,-0.154
4,UniProt Q9DAV9,0.148
5,UniProt Q9D7N9,-0.0455
6,UniProt Q9D939,0.199
7,UniProt Q9CZ30,-0.102
8,UniProt Q9CZB0,0.202
9,UniProt Q9D5J6,0.109
10,UniProt Q9DBF7,0.123
11,UniProt Q9DBM2,0.0192
12,UniProt Q9DBF1,-0.0294
13,UniProt Q9DB05,0.113
14,UniProt Q9DA03,-0.29
15,UniProt Q9D024,-0.139
16,UniProt Q9D273,-0.0452
17,UniProt Q9D1J3,-0.114
18,UniProt Q9D924,-0.0209
19,UniProt Q9D8W5,-0.342

row,Target,log2 fold change of pooled soluble protein
1,UniProt Q9D1J1,0.133
2,UniProt Q9CZE3,0.00348
3,UniProt Q9D883,-0.0125
4,UniProt Q9D1H8,-0.101
5,UniProt Q9D1M0,0.0662
6,UniProt Q9DBP5,-0.0017
7,UniProt Q9DB29,-0.0446
8,UniProt Q9D0L8,0.152
9,UniProt Q9D3B1,-0.0146
10,UniProt Q9D8B6,-0.0165
11,UniProt Q9DAM7,-0.175
12,UniProt Q9DB98,0.0216
13,UniProt Q9DB15,0.0891
14,UniProt Q9CY66,0.0849
15,UniProt Q9DBJ3,-0.0514
16,UniProt Q9D517,0.0514
17,UniProt Q9D8T2,-0.0424
18,UniProt Q9D1Q6,-0.0584

# Quoted at random: 2 entries already listed, in no set order.
row,Target,log2 fold change of pooled soluble protein
11,UniProt Q9DAM7,-0.175
12,UniProt Q9DB98,0.0216
